Experimental data taken from PubChem BioAssay AID220 (DTP/NCI, 2004).
The list is a part of this screen's results and no random one: its compounds were picked by chemical class. Not every dose and run of a compound is shown. T/C: endpoint of the treated group in % of that of the vehicle group. Schedule codes are those of the source, read here as Q, the interval in days (D) or hours (H), X, the number of doses. Some T/C values are marked as having no survivor count here; that says nothing about deaths at the dose. Some entries were tested several times; the results are listed from low to high.

Test system: CD8F1 mice, subcutaneous mammary adenocarcinoma, T/C%
Assay: NCI In Vivo Anticancer Drug Screen. Data for tumor model Mammary Adenocarcinoma CD8F1 (subcutaneous) in CD8F1
Details: higher T/C = larger tumour
Method: The antitumor activity of compounds was measured in mice bearing transplantable tumors. Survival or tumor size were measured and the results are expressed as the measurement made in the treated group (T) divided by the measurement made in the vehicle treated control group (C). The tumor model used in this assay is Mammary Adenocarcinoma CD8F1 (subcutaneous) in CD8F1

[1] = T/C endpoint: median tumor weight (est.), dose: 2.0 mg/kg/injection, schedule: Q07DX005 (ip), vehicle: saline, evaluated on day 30

Q: How did the T/C (T/C endpoint: median tumor weight (est.), dose: 0.75 mg/kg/injection, schedule: Q07DX004 (ip), vehicle: saline, evaluated on day 30) turn out when CC1=C[C@H]2O[C@@H]3C[C@H]4OC(=O)/C=C\C=C\C(C(C)O)OCC(O)C(C)CC(=O)OC[C@@]2(C[C@@H]1O)[C@]4(C)[C@@]31CO1 (some centres not stated) was run?
A: The T/C was 91 % of control [survivor count not shown].

Q: And the T/C (T/C endpoint: median tumor weight (est.), dose: 1.5 mg/kg/injection, schedule: Q07DX004 (ip), vehicle: saline, evaluated on day 30)?
A: Its T/C is 108 % of control [survivor count not shown].

Q: Which results are given for C=C(C)C(=O)OCC12CCC(C)=CC1OC1C(=O)C(OC(=O)C(=C)C)C2(C)C12CO2 (configuration not stated)?
A: T/C (T/C endpoint: median tumor weight change, dose: 2.5 mg/kg/injection, schedule: Q01DX001 (ip), vehicle: distilled water + Tween-80, evaluated on day 33): 40 % of control [survivor count not shown]; T/C (T/C endpoint: median tumor weight change, dose: 5.0 mg/kg/injection, schedule: Q01DX001 (ip), vehicle: distilled water + Tween-80, evaluated on day 33): 81 % of control [survivor count not shown]

Q: Which results are given for CC(=O)O[C@@H]1[C@@H](O)[C@H]2O[C@@H]3C=C(C)C(=O)[C@@H](O)[C@]3(CO)[C@]1(C)[C@]21CO1?
A: T/C (T/C endpoint: median tumor weight (est.), dose: 0.4 mg/kg/injection, schedule: Q07DX005 (ip), vehicle: saline, evaluated on day 30): 101 % of control [survivor count not shown]; T/C (T/C endpoint: median tumor weight (est.), dose: 1.6 mg/kg/injection, schedule: Q07DX005 (ip), vehicle: saline, evaluated on day 30): 62 % of control [survivor count not shown]

Q: What does the source list for CC(=O)OC[C@]12C[C@H](OC(=O)CC(C)C)C(C)=C[C@H]1O[C@@H]1[C@H](O)[C@@H](O)[C@@]2(C)[C@@]12CO2?
A: T/C (T/C endpoint: median tumor weight (est.), dose: 0.25 mg/kg/injection, schedule: Q07DX005 (ip), vehicle: saline, evaluated on day 30): 85 % of control [survivor count not shown]; T/C (T/C endpoint: median tumor weight (est.), dose: 1.0 mg/kg/injection, schedule: Q07DX005 (ip), vehicle: saline, evaluated on day 30): 100 % of control [survivor count not shown]; T/C (T/C endpoint: median tumor weight (est.), dose: 1.25 mg/kg/injection, schedule: Q07DX005 (ip), vehicle: saline, evaluated on day 30): 108 % of control [survivor count not shown]; T/C [1]: 35 [survivor count not shown] and 51 % of control [survivor count not shown]; T/C (T/C endpoint: median tumor weight (est.), dose: 2.5 mg/kg/injection, schedule: Q07DX005 (ip), vehicle: saline, evaluated on day 30): 81 % of control [survivor count not shown]; T/C (T/C endpoint: median tumor weight (est.), dose: 4.0 mg/kg/injection, schedule: Q07DX005 (ip), vehicle: saline, evaluated on day 30): 32 [survivor count not shown] and 50 % of control [survivor count not shown]; T/C (T/C endpoint: median tumor weight (est.), dose: 5.0 mg/kg/injection, schedule: Q07DX005 (ip), vehicle: saline, evaluated on day 30): 35 % of control [survivor count not shown]; T/C (T/C endpoint: median tumor weight (est.), dose: 10.0 mg/kg/injection, schedule: Q07DX005 (ip), vehicle: saline, evaluated on day 30): 34 % of control [survivor count not shown]; T/C (T/C endpoint: median tumor weight change, dose: 1.0 mg/kg/injection, schedule: Q01DX001 (ip), vehicle: suspension in saline, evaluated on day 36): 160 % of control [survivor count not shown]; T/C (T/C endpoint: median tumor weight change, dose: 2.0 mg/kg/injection, schedule: Q01DX001 (ip), vehicle: suspension in saline, evaluated on day 36): 142 % of control [survivor count not shown]; T/C (T/C endpoint: median tumor weight change, dose: 4.0 mg/kg/injection, schedule: Q01DX001 (ip), vehicle: suspension in saline, evaluated on day 36): 159 % of control [survivor count not shown]; T/C (T/C endpoint: median tumor weight change, dose: 5.0 mg/kg/injection, schedule: Q01DX001 (ip), vehicle: saline, evaluated on day 32): 34 % of control [survivor count not shown]; T/C (T/C endpoint: median tumor weight change, dose: 8.0 mg/kg/injection, schedule: Q01DX001 (ip), vehicle: suspension in saline, evaluated on day 36): 200 % of control [survivor count not shown]

Q: Which T/C (T/C endpoint: mean tumor weight, dose: 0.15 mg/kg/injection, schedule: Q07DX005 (ip), vehicle: saline, evaluated on day 33) does the source give for CC(=O)OC[C@]12C[C@H](OC(=O)CC(C)C)C(C)=C[C@H]1OC1[C@H](O)[C@@H](OC(C)=O)[C@@]2(C)[C@@]12CO2 here?
A: The T/C was 77 % of control [survivor count not shown].

Q: And the T/C (T/C endpoint: mean tumor weight, dose: 0.3 mg/kg/injection, schedule: Q07DX005 (ip), vehicle: saline, evaluated on day 33)?
A: Its T/C is 100 % of control [survivor count not shown].

Q: What about the T/C (T/C endpoint: mean tumor weight, dose: 1.2 mg/kg/injection, schedule: Q07DX005 (ip), vehicle: saline, evaluated on day 33) of the same compound?
A: Its T/C is 95 % of control [survivor count not shown].

Q: CC1=C[C@H]2O[C@@H]3C[C@H]4OC(=O)/C=C\C=C\C(C(C)O)OCC[C@@H](C)[C@H](O)C(=O)OC[C@@]2(CC1)[C@]4(C)[C@]31CO1 (some centres not stated) was tested. Which T/C (T/C endpoint: median tumor weight change, dose: 0.18 mg/kg/injection, schedule: Q01DX001 (ip), vehicle: Klucel (hydroxypropylcellulose) (HPC), evaluated on day 29) did it give?
A: Its T/C is 89 % of control [survivor count not shown].

Q: And the T/C (T/C endpoint: median tumor weight change, dose: 0.37 mg/kg/injection, schedule: Q01DX001 (ip), vehicle: Klucel (hydroxypropylcellulose) (HPC), evaluated on day 29)?
A: Its T/C is 65 % of control [survivor count not shown].

Q: What about the T/C (T/C endpoint: median tumor weight change, dose: 0.75 mg/kg/injection, schedule: Q01DX001 (ip), vehicle: Klucel (hydroxypropylcellulose) (HPC), evaluated on day 29) of the same compound?
A: Its T/C is 52 % of control [survivor count not shown].

Q: What about the T/C (T/C endpoint: median tumor weight change, dose: 1.5 mg/kg/injection, schedule: Q01DX001 (ip), vehicle: Klucel (hydroxypropylcellulose) (HPC), evaluated on day 29) of the same compound?
A: The T/C was 49 % of control [survivor count not shown].

Q: Which T/C (T/C endpoint: mean tumor weight, dose: 0.5 mg/kg/injection, schedule: Q07DX005 (ip), vehicle: saline, evaluated on day 33) does the source give for CC(=O)OCC12CCC(C)=CC1OC1C(O)C(OC(C)=O)C2(C)C12CO2 (configuration not stated) here?
A: Its T/C is 109 % of control [survivor count not shown].

Q: And the T/C (T/C endpoint: mean tumor weight, dose: 1.0 mg/kg/injection, schedule: Q07DX005 (ip), vehicle: saline, evaluated on day 33)?
A: Its T/C is 64 % of control [survivor count not shown].

Q: What about the T/C (T/C endpoint: mean tumor weight, dose: 1.0 mg/kg/injection, schedule: Q07DX007 (ip), vehicle: saline, evaluated on day 44) of the same compound?
A: The T/C was 80 % of control [survivor count not shown].

Q: What about the T/C (T/C endpoint: mean tumor weight, dose: 2.0 mg/kg/injection, schedule: Q07DX005 (ip), vehicle: saline, evaluated on day 33) of the same compound?
A: Its T/C is 47 % of control [survivor count not shown].

Q: And the T/C (T/C endpoint: mean tumor weight, dose: 2.0 mg/kg/injection, schedule: Q07DX007 (ip), vehicle: saline, evaluated on day 44)?
A: Its T/C is 22 % of control [survivor count not shown].

Q: What about the T/C (T/C endpoint: median tumor weight (est.), dose: 0.5 mg/kg/injection, schedule: Q07DX005 (ip), vehicle: saline, evaluated on day 30) of the same compound?
A: Its T/C is 127 % of control [survivor count not shown].

Q: What about the T/C [1] of the same compound?
A: Its T/C is 56 % of control [survivor count not shown].

Q: What about the T/C (T/C endpoint: median tumor weight (est.), dose: 8.0 mg/kg/injection, schedule: Q07DX005 (ip), vehicle: saline, evaluated on day 30) of the same compound?
A: Its T/C is 29 % of control [survivor count not shown].

Q: What about the T/C (T/C endpoint: median tumor weight change, dose: 3.0 mg/kg/injection, schedule: Q01DX001 (ip), vehicle: Klucel (hydroxypropylcellulose) (HPC), evaluated on day 25) of the same compound?
A: Its T/C is 79 % of control [survivor count not shown].

Q: What about the T/C (T/C endpoint: median tumor weight change, dose: 3.0 mg/kg/injection, schedule: Q01DX001 (ip), vehicle: Klucel (hydroxypropylcellulose) (HPC), evaluated on day 29) of the same compound?
A: The T/C was 41 % of control [survivor count not shown].

Q: What about the T/C (T/C endpoint: median tumor weight change, dose: 3.0 mg/kg/injection, schedule: Q01DX001 (ip), vehicle: Klucel (hydroxypropylcellulose) (HPC), evaluated on day 34) of the same compound?
A: The T/C was 40 % of control [survivor count not shown].

Q: And the T/C (T/C endpoint: median tumor weight change, dose: 6.0 mg/kg/injection, schedule: Q01DX001 (ip), vehicle: Klucel (hydroxypropylcellulose) (HPC), evaluated on day 25)?
A: Its T/C is 61 % of control [survivor count not shown].

Q: And the T/C (T/C endpoint: median tumor weight change, dose: 6.0 mg/kg/injection, schedule: Q01DX001 (ip), vehicle: Klucel (hydroxypropylcellulose) (HPC), evaluated on day 29)?
A: The T/C was 93 % of control [survivor count not shown].

Q: What about the T/C (T/C endpoint: median tumor weight change, dose: 12.0 mg/kg/injection, schedule: Q01DX001 (ip), vehicle: Klucel (hydroxypropylcellulose) (HPC), evaluated on day 25) of the same compound?
A: The T/C was 84 % of control [survivor count not shown].

Q: What about the T/C (T/C endpoint: median tumor weight change, dose: 12.0 mg/kg/injection, schedule: Q01DX001 (ip), vehicle: Klucel (hydroxypropylcellulose) (HPC), evaluated on day 29) of the same compound?
A: Its T/C is 74 % of control [survivor count not shown].

Q: What about the T/C (T/C endpoint: median tumor weight change, dose: 12.0 mg/kg/injection, schedule: Q01DX001 (ip), vehicle: Klucel (hydroxypropylcellulose) (HPC), evaluated on day 34) of the same compound?
A: The T/C was 29 % of control [survivor count not shown].

Q: What about the T/C (T/C endpoint: median tumor weight change, dose: 24.0 mg/kg/injection, schedule: Q01DX001 (ip), vehicle: Klucel (hydroxypropylcellulose) (HPC), evaluated on day 25) of the same compound?
A: The T/C was 56 % of control [survivor count not shown].

Q: And the T/C (T/C endpoint: median tumor weight change, dose: 24.0 mg/kg/injection, schedule: Q01DX001 (ip), vehicle: Klucel (hydroxypropylcellulose) (HPC), evaluated on day 29)?
A: The T/C was 52 % of control [survivor count not shown].

Q: For CC1=CC2OC3CC4OC(=O)/C=C/C=C/C(C(C)O)OCC/C(C)=C/C(=O)OCC2(CC1)C4(C)C31CO1 (configuration not stated), which T/C (T/C endpoint: median tumor weight (est.), dose: 1.56 mg/kg/injection, schedule: Q07DX005 (ip), vehicle: saline, evaluated on day 32) is on record?
A: The T/C was 139 % of control [survivor count not shown].

Q: What about the T/C (T/C endpoint: median tumor weight (est.), dose: 6.25 mg/kg/injection, schedule: Q07DX005 (ip), vehicle: saline, evaluated on day 32) of the same compound?
A: The T/C was 111 % of control [survivor count not shown].

Q: And the T/C (T/C endpoint: median tumor weight (est.), dose: 12.5 mg/kg/injection, schedule: Q07DX005 (ip), vehicle: saline, evaluated on day 32)?
A: The T/C was 137 % of control [survivor count not shown].
